No constants are given. Whether binding was seen depends on the method and setting. Binding seen in cells or lysates may run through a third protein.
Target: T1, FcγRI (CD64) (mouse (endogenous in Raw264.7)) (UniProt P26151)
T1 sequence: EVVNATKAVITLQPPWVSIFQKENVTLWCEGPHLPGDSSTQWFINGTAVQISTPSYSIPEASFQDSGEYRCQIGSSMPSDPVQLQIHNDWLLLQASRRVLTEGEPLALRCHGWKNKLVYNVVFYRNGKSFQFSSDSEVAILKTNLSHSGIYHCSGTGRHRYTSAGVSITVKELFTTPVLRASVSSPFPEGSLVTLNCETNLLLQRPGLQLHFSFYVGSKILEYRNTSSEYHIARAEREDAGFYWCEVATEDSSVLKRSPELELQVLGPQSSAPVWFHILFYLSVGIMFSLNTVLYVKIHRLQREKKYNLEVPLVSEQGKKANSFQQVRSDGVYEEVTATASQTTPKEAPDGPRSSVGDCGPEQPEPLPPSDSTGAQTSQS
Assay: co-IP; Raw264.7 cells lysed in RIPA buffer; homogenates incubated with protein G beads pre-absorbed with anti-CD64 antibody; pre- and post-IP supernatants and beads blotted for GPER1

binding: no binding
B1: G protein-coupled estrogen receptor 1 (receptor, UniProt Q8BMP4 1-375)
chain: MDATTPAQTVGVEIYLGPVWPAPSNSTPLALNLSLALREDAPGNLTGDLSEHQQYVIALFLSCLYTIFLFPIGFVGNILILVVNISFREKMTIPDLYFINLAAADLILVADSLIEVFNLDEQYYDIAVLCTFMSLFLQINMYSSVFFLTWMSFDRYLALAKAMRCGLFRTKHHARLSCGLIWMASVSATLVPFTAVHLRHTEEACFCFADVREVQWLEVTLGFIMPFAIIGLCYSLIVRALIRAHRHRGLRPRRQKALRMIFAVVLVFFICWLPENVFISVHLLQWTQPGDTPCKQSFRHAYPLTGHIVNLAAFSNSCLNPLIYSFLGETFRDKLRLYVEQKTSLPALNRFCHATLKAVIPDSTEQSEVRFSSAV
